Data from patent US20090028790A1 (INSTITUT DE CARDIOLOGIE DE MONTREAL, published 2009).
No constants are given. Whether binding was seen depends on the method and setting. Some results given as binding are weak or reduced against the parent protein; the word gives no strength. Each block holds one binder with its values, some of them ahead of it.

Target: adrenomedullin receptors in the lungs of dogs (dog)
Test: competition: displacement of iodine-labelled hAM from dog lungs; rank order

- binding: binds
B1: hAM(22-52) (peptide)
peptide: TVQKLAHQIYQFTDKDKDNVAPRSKISPQGY
modifications: C-terminal amide (Tyr-CONH2)

- binding: binds
B2: hAM(13-52) (peptide)
peptide: SFGCRFGTCTVQKLAHQIYQFTDKDKDNVAPRSKISPQGY
modifications: C-terminal amide (Tyr-CONH2)
